Laboratory results published in the supplement of paper PMC4604168 (melanoma cell lines).
The list shows a part of the results. Many values rest on one well or one pass, so single values are uncertain.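 Imaging used 1,536-well plates; nuclei positive for cleaved PARP by antibody were divided by total DNA-stained nuclei to yield the apoptosis fraction. Doses for screening kept most cells viable, and cell lines differ markedly in resting and induced cleaved-PARP levels.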

Columns and labels:
Assay in all cases: cleaved PARP positive nuclei fraction relative to DMSO control; melanoma cells; higher = more apoptosis
Conditions in all cases: library dose: low library concentration; 72 h
A101D = system: A101D
A2058 = system: A2058
A375 = system: A375
C32 = system: C32
CBRC013 = system: CBRC013 (line from a melanoma biopsy)
CBRC014 = system: CBRC014 (line from a melanoma biopsy)
CBRC016 = system: CBRC016 (line from a melanoma biopsy)
CBRC017 = system: CBRC017 (line from a melanoma biopsy)
501Mel = system: 501Mel

SMILES | cleaved PARP positive nuclei fraction (A101D) | cleaved PARP positive nuclei fraction (A2058) | cleaved PARP positive nuclei fraction (A375) | cleaved PARP positive nuclei fraction (C32) | cleaved PARP positive nuclei fraction (CBRC013) | cleaved PARP positive nuclei fraction (CBRC014) | cleaved PARP positive nuclei fraction (CBRC016) | cleaved PARP positive nuclei fraction (CBRC017) | cleaved PARP positive nuclei fraction (501Mel)
CCCCCCCCCCCC1=C(O)C(=O)C=C(O)C1=O [Embelin] + O=c1cc(-c2cccc3c2Sc2ccccc2S3)oc(N2CCOCC2)c1 [KU55933] (first compound 1.2 µM, partner dose 1 µM) | 172% | 114% | 128% | 43.4% | 113% | 91.3% | 81.6% | 80.8% | 
N#Cc1c(O)c2c(-c3ccc(-c4ccccc4O)cc3)csc2[nH]c1=O + O=S(=O)(c1ccccc1)N(CC(F)(F)F)c1ccc(C(O)(C(F)(F)F)C(F)(F)F)cc1 [T0901317] (first compound 2 µM, partner dose 1.4 µM) | 201% | 147% | 154% | 17.3% | 80.7% | 117% | 27.6% | 243% | 
CN(NC(=O)CC(=O)NN(C)C(=S)c1ccccc1)C(=S)c1ccccc1 + c1cc(-c2cnn3cc(-c4ccc(OCCN5CCCCC5)cc4)cnc23)ccn1 [Dorsomorphin] (first compound 0.006 µM, partner dose 0.4 µM) | 221% | 434% | 5970% | 110% | 564% | 577% | 147% | 233% | 
CCN(CC)CCCCNc1ncc2cc(-c3cc(OC)cc(OC)c3)c(NC(=O)NC(C)(C)C)nc2n1 + COc1cc(N2CCC(N3CCN(C)CC3)CC2)ccc1Nc1ncc(Cl)c(Nc2ccccc2S(=O)(=O)C(C)C)n1 [NVP-TAE684] (first compound 0.1 µM, partner dose 0.08 µM) | 232% | 39.2% | 123% | 63.2% | 167% | 100% | 21.7% | 153% | 
N#Cc1c(O)c2c(-c3ccc(-c4ccccc4O)cc3)csc2[nH]c1=O + Cn1cc(/C=C2\C(=O)Nc3cccnc32)c2ccccc21 [GW441756] (first compound 2 µM, partner dose 0.4 µM) | 90.7% | 40.6% | 74.6% | 73.6% | 108% | 86.6% | 63.4% | 72.6% | 62.1%
CCN(CC)CCCCNc1ncc2cc(-c3cc(OC)cc(OC)c3)c(NC(=O)NC(C)(C)C)nc2n1 + Oc1cc(-c2nc(-c3ccccc3)[nH]c2-c2ccncc2)ccc1Cl [L779450] (first compound 0.1 µM, partner dose 0.2 µM) | 113% | 64.5% | 216% | 46.6% | 120% | 91.2% | 25.1% | 77.3% | 
Cn1cc(/C=C2\C(=O)Nc3cccnc32)c2ccccc21 + CC(C)CCN1c2nc(Nc3cc(F)c(O)c(F)c3)ncc2N(C)C(=O)C1C [BID1870] (first compound 0.4 µM, partner dose 0.2 µM) | 94.8% | 81.6% | 85.6% | 100% | 164% | 119% | 134% | 98.6% | 113%
COc1ccc2c(c1)CCC1C2CCC2(C)C(NCCCCCCN3C(=O)C=CC3=O)CCC12 (centres undefined) + COc1cc(N2CCC(N3CCN(C)CC3)CC2)ccc1Nc1ncc(Cl)c(Nc2ccccc2S(=O)(=O)C(C)C)n1 [NVP-TAE684] (first compound 0.4 µM, partner dose 0.08 µM) | 117% | 82.4% | 155% | 113% | 149% | 112% | 160% | 85.8% | 
O=C(Nc1ccccc1)c1cc([N+](=O)[O-])ccc1Cl + Cc1cc([N+](=O)[O-])ccc1NS(=O)(=O)c1cc(Cl)ccc1Cl [FH535] (first compound 2 µM, partner dose 1 µM) | 189% | 45.3% | 367% | 138% | 125% | 151% | 1940% | 830% | 
CCN(CC)CCCCNc1ncc2cc(-c3cc(OC)cc(OC)c3)c(NC(=O)NC(C)(C)C)nc2n1 + COc1ccc(COc2ccc(Cc3cnc(N)nc3N)cc2OC)cc1 [GW2580] (first compound 0.1 µM, partner dose 1 µM) | 195% | 61.2% | 131% | 39.5% | 200% | 83.9% |  | 76.9% | 81.5%
O=C(Nc1ccccc1)c1cc([N+](=O)[O-])ccc1Cl + O=S(=O)(c1ccccc1)N(CC(F)(F)F)c1ccc(C(O)(C(F)(F)F)C(F)(F)F)cc1 [T0901317] (first compound 2 µM, partner dose 1.4 µM) | 59.3% | 100% | 94.8% | 122% | 45.6% | 110% | 56.3% | 156% | 
CCc1ccc(CCOc2ccc(CC3SC(=O)NC3=O)cc2)nc1 (centres undefined) [pioglitazone] + O=C(O)C(=O)Nc1sc2c(c1C(=O)O)CCNC2 [TCS401] (first compound 2 µM, partner dose 1.66667 µM) | 117% | 87.8% | 43.4% | 70.7% | 60.2% | 87.9% | 84% | 87.6% | 
COc1ccc(-c2ccc3c(N4CCOCC4)nc(N4C[C@@H](C)O[C@@H](C)C4)nc3n2)cc1CO + Cn1cc(/C=C2\C(=O)Nc3cccnc32)c2ccccc21 [GW441756] (first compound 0.02 µM, partner dose 0.4 µM) | 315% | 73% | 83.2% | 41.3% | 53.5% | 96.4% | 25.2% | 70.9% | 
COC(=O)c1sccc1S(=O)(=O)Nc1ccc(Nc2ccccc2)cc1OC + Oc1cc(-c2nc(-c3ccccc3)[nH]c2-c2ccncc2)ccc1Cl [L779450] (first compound 1 µM, partner dose 0.2 µM) | 69% | 96% | 28.2% | 49.2% | 113% | 106% | 87.8% | 89.4% | 
COc1cc2ncnc(Nc3ccc(Oc4ccccc4)cc3)c2cc1OC + O=C1NC(=O)/C(=C/c2ccc(-c3ccc(F)cc3O)o2)S1 [AS252424] (first compound 2 µM, partner dose 1 µM) | 117% | 89.7% | 44.8% | 69.5% | 68.2% | 94.1% | 83.7% | 87.8% | 
c1cc(-c2cnn3cc(-c4ccc(OCCN5CCCCC5)cc4)cnc23)ccn1 [Dorsomorphin] + CCCCCCCCCCCC1=C(O)C(=O)C=C(O)C1=O [Embelin] (first compound 0.4 µM, partner dose 1.2 µM) | 35.6% | 71.8% | 72% | 131% | 138% | 80.8% | 99.8% | 73.9% | 
O=C1NC(=O)/C(=C/c2ccc(-c3ccc(F)cc3O)o2)S1 + Cc1cc([N+](=O)[O-])ccc1NS(=O)(=O)c1cc(Cl)ccc1Cl [FH535] (first compound 1 µM, partner dose 1 µM) | 69.1% | 121% | 45.5% | 69.8% | 561% | 121% | 356% | 193% | 
COc1cc2ncnc(Nc3ccc(Oc4ccccc4)cc3)c2cc1OC + CC(C)CCN1c2nc(Nc3cc(F)c(O)c(F)c3)ncc2N(C)C(=O)C1C [BID1870] (first compound 2 µM, partner dose 0.2 µM) | 67.7% | 140% | 54.7% | 36% | 172% | 91% | 130% | 217% | 
Oc1cc(-c2nc(-c3ccccc3)[nH]c2-c2ccncc2)ccc1Cl + Cn1cc(/C=C2\C(=O)Nc3cccnc32)c2ccccc21 [GW441756] (first compound 0.2 µM, partner dose 0.4 µM) | 243% | 32.4% | 234% | 124% | 77.2% | 90.9% | 44.6% | 96.2% | 129%
CN(NC(=O)CC(=O)NN(C)C(=S)c1ccccc1)C(=S)c1ccccc1 + N#Cc1c(O)c2c(-c3ccc(-c4ccccc4O)cc3)csc2[nH]c1=O [A769662] (first compound 0.006 µM, partner dose 2 µM) | 290% | 199% | 1840% | 132% | 209% | 398% | 354% | 140% | 
O=C(O)C(=O)Nc1sc2c(c1C(=O)O)CCNC2 + COc1cc(N2CCC(N3CCN(C)CC3)CC2)ccc1Nc1ncc(Cl)c(Nc2ccccc2S(=O)(=O)C(C)C)n1 [NVP-TAE684] (first compound 1.66667 µM, partner dose 0.08 µM) | 60.8% | 23.9% | 91.5% | 75.8% | 1040% | 82.3% | 155% | 145% | 
O=C(Nc1ccccc1)c1cc([N+](=O)[O-])ccc1Cl + COc1ccc(-c2ccc3c(N4CCOCC4)nc(N4C[C@@H](C)O[C@@H](C)C4)nc3n2)cc1CO [KU0063794] (first compound 2 µM, partner dose 0.02 µM) | 122% | 74.9% | 88.4% | 38.6% | 173% | 84.5% | 100% | 74.4% | 
COc1cc2c(Oc3ccc4[nH]c(C)cc4c3F)ncnc2cc1OCCCN1CCCC1 [cediranib] + c1cc(-c2cnn3cc(-c4ccc(OCCN5CCCCC5)cc4)cnc23)ccn1 [Dorsomorphin] (first compound 0.4 µM, partner dose 0.4 µM) | 122% | 53.3% | 114% | 327% | 124% | 229% | 114% | 78.8% | 
COc1ccc2c(c1)CCC1C2CCC2(C)C(NCCCCCCN3C(=O)C=CC3=O)CCC12 (centres undefined) + O=S(=O)(c1ccccc1)N(CC(F)(F)F)c1ccc(C(O)(C(F)(F)F)C(F)(F)F)cc1 [T0901317] (first compound 0.4 µM, partner dose 1.4 µM) | 213% | 77.9% | 174% | 136% | 20.9% | 120% | 111% | 90.3% | 176%
COC(=O)c1sccc1S(=O)(=O)Nc1ccc(Nc2ccccc2)cc1OC + COc1ccc(-c2ccc3c(N4CCOCC4)nc(N4C[C@@H](C)O[C@@H](C)C4)nc3n2)cc1CO [KU0063794] (first compound 1 µM, partner dose 0.02 µM) | 57.9% | 77% | 101% | 89.8% | 954% | 123% | 81.2% | 116% | 

Reformatted: results already given.
SMILES	cleaved PARP positive nuclei fraction (A101D)	cleaved PARP positive nuclei fraction (A2058)	cleaved PARP positive nuclei fraction (A375)	cleaved PARP positive nuclei fraction (C32)	cleaved PARP positive nuclei fraction (CBRC013)	cleaved PARP positive nuclei fraction (CBRC014)	cleaved PARP positive nuclei fraction (CBRC016)	cleaved PARP positive nuclei fraction (CBRC017)	cleaved PARP positive nuclei fraction (501Mel)
CN(NC(=O)CC(=O)NN(C)C(=S)c1ccccc1)C(=S)c1ccccc1 + c1cc(-c2cnn3cc(-c4ccc(OCCN5CCCCC5)cc4)cnc23)ccn1 [Dorsomorphin] (first compound 0.006 µM, partner dose 0.4 µM)	221%	434%	5970%	110%	564%	577%	147%	233%	
CCN(CC)CCCCNc1ncc2cc(-c3cc(OC)cc(OC)c3)c(NC(=O)NC(C)(C)C)nc2n1 + COc1cc(N2CCC(N3CCN(C)CC3)CC2)ccc1Nc1ncc(Cl)c(Nc2ccccc2S(=O)(=O)C(C)C)n1 [NVP-TAE684] (first compound 0.1 µM, partner dose 0.08 µM)	232%	39.2%	123%	63.2%	167%	100%	21.7%	153%	
N#Cc1c(O)c2c(-c3ccc(-c4ccccc4O)cc3)csc2[nH]c1=O + Cn1cc(/C=C2\C(=O)Nc3cccnc32)c2ccccc21 [GW441756] (first compound 2 µM, partner dose 0.4 µM)	90.7%	40.6%	74.6%	73.6%	108%	86.6%	63.4%	72.6%	62.1%
CCN(CC)CCCCNc1ncc2cc(-c3cc(OC)cc(OC)c3)c(NC(=O)NC(C)(C)C)nc2n1 + Oc1cc(-c2nc(-c3ccccc3)[nH]c2-c2ccncc2)ccc1Cl [L779450] (first compound 0.1 µM, partner dose 0.2 µM)	113%	64.5%	216%	46.6%	120%	91.2%	25.1%	77.3%	
Cn1cc(/C=C2\C(=O)Nc3cccnc32)c2ccccc21 + CC(C)CCN1c2nc(Nc3cc(F)c(O)c(F)c3)ncc2N(C)C(=O)C1C [BID1870] (first compound 0.4 µM, partner dose 0.2 µM)	94.8%	81.6%	85.6%	100%	164%	119%	134%	98.6%	113%
